Test results taken from PMC4935968, “Engineering biosynthesis of the anticancer alkaloid noscapine in yeast” (Nature Communications, 2016).
These are yes or no findings as the source states them, for the method shown. For some assays here: Binding seen in cells or lysates may run through a third protein. Some binding calls cover weakened binding; strength is not graded here. Sequences can lack the tags named with a protein.

Experiments:
[1] = molecular target: T1, hexa-histidine tagged PsMT2 (Papaver somniferum, UniProt I3PLQ6 1-356); experiment: SEC; purified complex on a BioSep-SEC-s4000 column, 300 mM NaCl in 100 mM sodium phosphate buffer, pH 7.5, 1 ml/min; calibrated with protein standards of 12.4-200 kDa; both purified
T1 construct: PsMT2, O-methyltransferase of the noscapine gene cluster of Papaver somniferum; gene codon-optimised for S. cerevisiae, amplified with primers PsMT2-pET-F/R and inserted into pET28a; Printed mass of the His-tagged protein is 40.09 kDa; also called His-tagged PsMT2; source: E. coli BL21(DE3), co-expressed with T7-tagged PsMT3 or Ps6OMT; complex purified (Ni-NTA agarose, then T7 tag antibody …)
T1 sequence (looked up): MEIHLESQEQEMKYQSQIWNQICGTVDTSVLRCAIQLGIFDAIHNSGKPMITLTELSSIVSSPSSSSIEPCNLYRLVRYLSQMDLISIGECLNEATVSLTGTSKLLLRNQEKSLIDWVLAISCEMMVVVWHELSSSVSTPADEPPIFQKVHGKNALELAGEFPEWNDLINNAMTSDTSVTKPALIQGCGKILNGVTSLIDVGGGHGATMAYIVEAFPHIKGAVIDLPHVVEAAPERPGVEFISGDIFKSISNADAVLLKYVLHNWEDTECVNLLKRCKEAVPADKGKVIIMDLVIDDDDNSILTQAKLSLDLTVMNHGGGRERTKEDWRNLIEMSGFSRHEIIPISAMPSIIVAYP

[2] = molecular target: T1, hexa-histidine tagged PsMT2; experiment: pull-down; tandem affinity co-purification from lysate of E. coli co-expressing both proteins: Ni-NTA agarose (His-tagged PsMT2), eluate then on T7 tag antibody agarose (T7-tagged partner); product analysed by SDS-PAGE and western blot with Anti-6X His tag and Anti-T7 tag antibodies

B1: T7-tagged PsMT3 (enzyme, UniProt I3PLQ7 1-339)
chain: MEVVSKIDQENQAKIWKQIFGFAESLVLKCAVQLEIAETLHNNVKPMSLSELASKLPAQPVNEDRLYRILHFLVHMKLFNKDATTQKYSLAPPAKYLLKGWEKSMVPSILSVTDKDFTAPWNHLGDGLTGNCNAFEKALGKGIRVYMRENPEKDQLFNEGMACDTRLFASALVNECKSIFSDGINTLAGVGRGTGTAVKAISKAFPDIKCTIHDLPEVTSKNSKIPRDVFKSVPSADAIFMKSILHEWNDEECIQILKRCKEAIPKGGKVIIADVVIDMDSTHPYSKSRLAMDLAMMLHTGGKERTEEDWKKLIDAAGFASCKITKLSALQSVIEAYPH
- binding [1]: binds
- binding [2]: binds
